Primary screen of a compound library

Sequences of proteins named here, by UniProt entry; tags and fusion partners are left off.
UniProt E9BF75, entry or part of it: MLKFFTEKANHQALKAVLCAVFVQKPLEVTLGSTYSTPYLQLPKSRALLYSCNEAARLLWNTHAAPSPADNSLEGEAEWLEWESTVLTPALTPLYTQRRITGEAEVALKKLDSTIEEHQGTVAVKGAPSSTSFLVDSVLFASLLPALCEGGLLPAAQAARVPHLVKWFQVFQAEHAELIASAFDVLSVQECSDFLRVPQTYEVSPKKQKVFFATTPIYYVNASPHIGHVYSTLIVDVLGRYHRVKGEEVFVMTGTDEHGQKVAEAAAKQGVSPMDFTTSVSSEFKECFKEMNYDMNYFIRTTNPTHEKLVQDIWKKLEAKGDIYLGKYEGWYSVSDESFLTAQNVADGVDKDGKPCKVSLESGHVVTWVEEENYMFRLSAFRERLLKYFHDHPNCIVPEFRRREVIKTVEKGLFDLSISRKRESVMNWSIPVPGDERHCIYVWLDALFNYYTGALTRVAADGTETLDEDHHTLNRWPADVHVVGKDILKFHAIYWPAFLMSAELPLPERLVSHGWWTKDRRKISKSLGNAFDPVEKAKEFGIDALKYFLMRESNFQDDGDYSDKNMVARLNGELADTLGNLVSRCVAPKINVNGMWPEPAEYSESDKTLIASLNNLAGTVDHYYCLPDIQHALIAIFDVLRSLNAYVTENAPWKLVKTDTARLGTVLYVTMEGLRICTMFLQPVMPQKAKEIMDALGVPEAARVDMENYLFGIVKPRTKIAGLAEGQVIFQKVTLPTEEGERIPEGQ

Results are percentages, as filed.
The controls that fix the scale are not given in the record; negative values are as filed.
This is an unselected part of the compounds tested.
A dash means the value is not listed here; it may have been measured.

A: 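Assay on Mycobacterium tuberculosis, filed only as a heat shock assay from Cornell; the read-out is not stated. The concentration is filed as 10 mM, unlikely as a test dose, so the dose is not known. The record gives no direction; compounds that gave an IC50 in retests scored well above the rest, so higher reads as stronger inhibition. About 69,000 compounds were tested under these conditions; 1.4% (about 930) showed 50% or more at least once.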
B: 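Whole-cell assay for inhibitors of Mycobacterium tuberculosis growth, labelled Cornell in the record; the read-out is not stated. The concentration is filed as 10 mM, unlikely as a test dose, so the dose is not known. The record gives no direction; compounds strong in two other growth screens of this library score well above the rest, so higher reads as stronger inhibition. Of about 53,000 compounds tested this way, about 900 (1.7%) reached 50% or more in at least one test.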
C: 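Methionyl-tRNA synthetase (putative), Leishmania donovani (UniProt E9BF75). Primary screen of methionyl-tRNA synthetase; the read-out is not stated. The test concentration is not given. Values are per cent inhibition. About 68,000 compounds were tested under these conditions; 0.035% (about 24) showed 50% or more at least once.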

structure | A | B | C
CN1CCN(C(=O)c2cnn(-c3ccccc3Cl)c2)CC1 | -9.566% | -32.48% | 15.38%
CCN1CCN(C2CCN(Cc3nnc(C4CC4)o3)CC2)C1=O | -11% | - | 7.735%
Cn1cc(CN2CC[C@@H](NS(C)(=O)=O)[C@@H]2Cc2cccnc2)cn1.O=C(O)C(F)(F)F.O=C(O)C(F)(F)F | -10.11% | 5.915% | -
CC(C)N(C)C(=O)C1CSCN1S(=O)(=O)c1cc(Cl)ccc1Cl (stereo not shown) | -34.31% | - | 2.466%
COc1ccccc1C1(CNCc2ccc([S+](C)[O-])cc2)CC1 (stereo not shown) | 2.211% | 19.02% | 12.33%
Cc1cc(NCCc2cnccn2)nc(-c2ccccc2O)n1 | 15.98% | - | 14.29%
Cc1cccc(N2CC3(CCN(S(=O)(=O)C4CC4)C3)C2)n1.O=C(O)C(F)(F)F | 12.6% | 17.14% | -
CN(CCSc1nncn1CC(F)(F)F)c1ccccc1 | -7.987% | - | 10.36%
O=C(c1ccc(F)cc1F)N1CC[C@H](O)[C@@H](N2CCOCC2)CC1 | 2.039% | - | 15.73%
O=C(NCCCO)c1cc(-c2cc[nH]n2)n2ccccc12 | - | - | 7.784%
O=C(O)C(F)(F)F.O=C(c1ccc[nH]1)N1CCc2onc(COc3cccnc3)c2C1 | 7.093% | 30.67% | -
CCOCc1ccc(NC(=O)N2CCOC3(CCC3)C2)cc1 | 15.09% | -3.818% | 5.866%
O=C(Nc1cc(Cl)ccc1N1CCCCC1)c1ccccn1 | 10.95% | -45.11% | -0.8174%
Cc1nc(C2(O)CCCNCC2)sc1CCOc1ccc(F)c(F)c1 (stereo not shown) | - | - | 13.59%
COc1cc(Cl)c(C)cc1-n1nnc(C(=O)O)c1-c1ccncc1 | -5.953% | -10.36% | 8.075%
Cc1cccc(-c2noc(C)c2C(=O)NC2CCCOC2)c1.O=C(O)CC(O)(CC(=O)O)C(=O)O (stereo not shown) | -11.25% | 20.12% | -
CNC(=O)c1cccc(C2CNCCN2C)c1 (stereo not shown) | -14.9% | -10.64% | 6.507%
O=C(CSc1ccncc1)N1C[C@H]2CC[C@@H]1CN(Cc1cccnc1)C2 | - | - | 13.3%
CO[C@H]1CCN(S(=O)(=O)c2cccs2)[C@H]1Cc1ccncc1 | -8.516% | 14.66% | 19.37%
CO[C@H]1C[C@@H](O)C12CCN(C(=O)CCSCc1ccc(F)cc1)CC2 | 0.7566% | 3.007% | 15.08%
Cc1ccc2c(n1)N(CCn1cccn1)CCN(S(C)(=O)=O)C2 | - | - | 8.629%
O=C(CCCOc1cccc(F)c1)N1CCCC(n2cccn2)C1 (stereo not shown) | -24.21% | - | 19.67%
COCC[C@]1(O)CCN(C(=O)CCn2c(C)cccc2=O)C[C@H]1C | -38.9% | -5.041% | 3.249%
COCC1c2c(cnn2C)CCN1C(=O)c1cccn1C.O=C(O)C(F)(F)F (stereo not shown) | 31.63% | -19.58% | -
Fc1ccc(-c2nc(CN3CCCC3Cn3cncn3)co2)cc1F (stereo not shown) | -20.95% | - | 4.819%
CSc1nccn1-c1cccc(C(=O)NCCC(=O)NC(C)C)c1 | -6.255% | -2.172% | 17.04%
Cc1cc(CN2CCC3(CC2)CC(C(=O)O)N(C(=O)C2CC2)C3)oc1C (stereo not shown) | 9.995% | - | 8%
[H][C@]12CCN(C(=O)c3cc(C)on3)C[C@@]1([H])[C@H](CN1CCCC1)OC2 | 12.1% | -46.86% | -
Cc1c(NC(=O)N(C)CCCc2cnn(C)c2)cnn1C | -8.652% | - | 9.589%
CC(C)Oc1ccc(CNC(=O)CCN2C(=O)CCC2=O)cc1F | -3.587% | - | 12.38%
N#Cc1ccc(NCCNc2ccc(C(F)(F)F)cn2)nc1 | 51.52% | - | 15.31%
O=C(NCc1nc(C2CCCCC2)no1)C1CC(=O)N(C2CCCC2)C1 (stereo not shown) | -9.954% | 3.955% | 2.941%
Brc1cccc(-c2noc(CN3CCOCC3)n2)c1 | 3.042% | 3.358% | 20.56%
CC(CNCc1ccc(Br)cc1)Oc1ccccn1 (stereo not shown) | - | - | 2.121%
O=C(NCc1ccccn1)[C@H]1COC[C@H]2CN(CC3CC3)C[C@H]21 | - | - | 2.488%
CCN(CC)Cc1ccc(C(=O)N2CCCC2Cn2cc(C)cn2)o1 (stereo not shown) | -4.121% | - | 9.206%
COc1ccc(S(=O)(=O)C(F)(F)F)cc1NC(=O)CSC | 6.147% | -38.88% | 6.793%
CCN1CCC2(CCC1=O)CN(c1nccc(N)n1)CCN2C (stereo not shown) | -26.89% | -8.279% | 10.61%
CNc1cc(C(=O)N2CCC3(CC2)Nc2ccccc2NC3=O)ccn1 | -4.134% | 8.086% | 21.4%
Cc1ccc(N2C[C@H]3CCC[C@@H](CN(C)C)[C@H]3C2)nn1 | - | - | 15.68%
CC(CN1CCOCC1)n1cncc1-c1ccc2c(c1)CCCN2C.Cl (stereo not shown) | -23.4% | 14.81% | -
NCCSc1nccc(-c2cnc(C3CC3)nc2-c2ccco2)n1 | -36.82% | -33.45% | 9.951%
COc1c(CNCc2cccnc2N2CCN(C)CC2)c(C)nn1C | -0.3098% | -5.517% | 6.135%
CCCc1c(C(=O)N2CCN(c3cnccn3)CC2)cnn1C | -13.9% | -71.86% | 9.341%
Cc1cccc(CN2CCC(NS(C)(=O)=O)CC2)n1 | 10.63% | 20.87% | 13.77%
Cn1ccnc1CNc1nccc(-c2ncnn2C)n1 | -6.889% | 23.76% | 6.186%
O=C(c1cccc(F)c1Cl)N(CCO)CC1CC1 | 9.861% | - | 8.84%
N[C@H]1CN(C(=O)c2ccccc2Oc2ccccc2)C[C@@H]1C1CC1 | -8.79% | 17.12% | 15.08%
COCCN(CC1CCCN(C2Cc3ccccc3C2)C1)C(=O)CSC (stereo not shown) | -10.01% | - | 13.53%
Cc1cc(-c2nnn(CCC(N)=O)n2)ccc1F | -16.89% | 19.41% | 20.5%
O=S(=O)(NCC1CCOc2ccccc2C1)N1CCOCC1 (stereo not shown) | -1.616% | -19.87% | -9.449%
Cn1cccc1C(=O)N1CCc2ncnc(N3CCCC3)c2CC1 | -207.8% | - | 14.98%
Cc1ccc2c(n1)N(CCn1cccn1)CCN(CC1CC1)C2.O=C(O)C(F)(F)F.O=C(O)C(F)(F)F | -21.45% | - | -
O=C(O)C(F)(F)F.[H][C@@]12CN(C(=O)c3ccco3)C[C@]1([H])CN(c1ccccn1)C2 | 4.974% | - | -
c1cc(CNCc2ccnc(N3CCOCC3)c2)c2c(c1)OCCO2 | -1.122% | 17.24% | 18.96%
CNC(=O)c1cc2c(nc1NCC1CC1)CCN(CC1CC1)CC2 | - | - | 11.24%
Cc1c(C(=O)NC2CCCOc3cc(Cl)ccc32)cnn1C (stereo not shown) | 7.331% | -28.3% | 11.71%
Cc1cc(C(=O)NCc2cccnc2N2CCCC(O)C2)[nH]n1 (stereo not shown) | -0.9867% | 18.09% | 12.13%
Cc1nnc(NC(=O)CN2CCc3c(nc(C4CC4)n3C)C2)s1 | 0.6658% | - | 7.229%
CC(C)N1CC[C@H](c2nc3ccc(C(F)(F)F)cc3[nH]2)C1 | 5.252% | - | 12.64%
Cn1cc(CN2CCc3c(nnn3C)C2COCc2ccccc2)cn1.O=C(O)C(F)(F)F (stereo not shown) | -20.58% | -14.89% | -
Cc1nn(C)cc1CN1CCCC(n2c(=O)oc3ccc(Cl)cc32)C1 (stereo not shown) | -19.2% | -73.35% | 3.416%
CC(C)=CCCC(C)CN1CCC(n2cc(C(=O)NCCO)nn2)CC1 (stereo not shown) | -12.94% | 27.52% | 17.6%
CC(C)Cc1nc(CSCC(=O)N2CCC(C)CC2)no1 | 3.496% | - | 5.966%
Cn1cc(CN2CCO[C@H]3CN(Cc4ccco4)C[C@H]32)cn1 | - | - | 3.093%
Cc1nc2c(c(NC(C)C)n1)CCN(C(=O)CCO)CC2 | 36.08% | -5.548% | 8.786%
Cc1ccc2c(c1)[C@@H](CC(=O)N1CCOCC1)CCO2 | 8.025% | -3.067% | 11.41%
[H][C@@]12CCCC[C@]1(O)CCN(C(=O)c1cc3ccccc3n1C)C2 | -5.578% | 22.26% | -
Cc1nc(C)n(CC2CCCN2CCCOc2ccc(F)cc2)n1 (stereo not shown) | -0.4791% | 27.58% | 5.164%

Repeated from the top, 7 entries:

structure,A,B,C
CN1CCN(C(=O)c2cnn(-c3ccccc3Cl)c2)CC1,-9.566%,-32.48%,15.38%
CCN1CCN(C2CCN(Cc3nnc(C4CC4)o3)CC2)C1=O,-11%,-,7.735%
Cn1cc(CN2CC[C@@H](NS(C)(=O)=O)[C@@H]2Cc2cccnc2)cn1.O=C(O)C(F)(F)F.O=C(O)C(F)(F)F,-10.11%,5.915%,-
CC(C)N(C)C(=O)C1CSCN1S(=O)(=O)c1cc(Cl)ccc1Cl (stereo not shown),-34.31%,-,2.466%
COc1ccccc1C1(CNCc2ccc([S+](C)[O-])cc2)CC1 (stereo not shown),2.211%,19.02%,12.33%
Cc1cc(NCCc2cnccn2)nc(-c2ccccc2O)n1,15.98%,-,14.29%
Cc1cccc(N2CC3(CCN(S(=O)(=O)C4CC4)C3)C2)n1.O=C(O)C(F)(F)F,12.6%,17.14%,-

From ChEMBL document CHEMBL3988442, “University of Dundee, Small-Polar-MMV Screening Library” (2021).